Measurements taken from patent publication US5834431A, “Des-Arg^9 -BK antagonists” (Cortech, Inc., priority 1995, dated 1998).

Molecular target: T1, B1 receptor (Homo sapiens, UniProt P46663)
T1 construct: Human lung fibroblasts IMR-90 cells were obtained from ATCC and propagated in DMEM media; host or cells: IMR-90 human lung fibroblasts, treated with interleukin 1b three hours before harvest; membranes
T1 sequence (P46663 1-353): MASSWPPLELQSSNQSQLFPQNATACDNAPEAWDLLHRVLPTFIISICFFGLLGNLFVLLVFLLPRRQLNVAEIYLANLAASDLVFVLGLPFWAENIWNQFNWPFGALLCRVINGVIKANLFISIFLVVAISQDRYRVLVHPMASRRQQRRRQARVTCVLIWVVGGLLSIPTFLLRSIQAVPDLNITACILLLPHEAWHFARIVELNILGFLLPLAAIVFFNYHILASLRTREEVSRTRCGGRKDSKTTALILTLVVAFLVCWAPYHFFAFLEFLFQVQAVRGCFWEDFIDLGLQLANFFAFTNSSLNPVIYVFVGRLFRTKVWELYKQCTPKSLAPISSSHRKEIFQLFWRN
Assay: Human B1 binding, IL-1b-treated IMR-90 membranes, 3H-des-Arg9-Kallidin
Procedure: Human lung fibroblasts IMR-90 cells were obtained from ATCC and propagated in DMEM media in […] roller bottles until confluent. Three hours prior to harvesting, the cells were treated with Interleukin lb (200 pg/ml). Human BK2 clones were propagated in F12 media until confluent. Preparation of membranes for binding assays was carried out by scraping cells from roller bottles in ice cold PBS and centrifuging at 1000 ×g, at 4° C. for 15 minutes. The supernatant was discarded and pellet resuspended in Buffer A consisting of 25 mM TES(pH 6.8) with 2 uM 1,10-Phenanthroline, and centrifuged at 27,000 ×g for 15 min. this was then repeated. The final pellet was resuspended in Buffer B (Buffer A with 2 uM Captopril, 140 ug/Ml Bacitracin, 0.1%BSA), and stored in 1 ml aliquots, frozen at -20° C. until needed.
Binding assays were performed by incubating human clone membranes with 0.3 nM ^3 H-Bradykinin or IMR-90 membranes with 0.5 nM ^3 H-des-Arg^9 -Kallidin in the presence of the peptides in assay buffer (Buffer B with 1 mM Dithiotreitol), at room temperature, for 45 minutes. All test compound dilutions were in triplicate. Assays were harvested by quick filtration in a Tomtec Harvester 96, with ice cold wash buffer consisting of 10 mM Tris/HCl, pH 7.5, 100 mM NaCl, 0.02%BSA, onto Wallec printed glassfiber Filtermat "B", which had been pre-soaked with 0.1% PEI and previously air-dried.

With `NCCCC[C@H](NC(=O)[C@@H](N)CCCCN)C(=O)N[C@@H](CCCN=C(N)N)C(=O)N1CCC[C@H]1C(=O)N1C[C@H](O)C[C@H]1C(=O)NCC(=O)N[C@H](C(=O)N[C@@H](CO)C(=O)N[C@@H](C(=O)N1[C@H](C(=O)O)C[C@@H]2CCCC[C@@H]21)C1Cc2ccccc2C1)C1Cc2ccccc2C1` [B9858, Lys- Lys-Arg-Pro-Hyp-Gly-Igl-Ser-DIgl-Oic] the IC50 was 0.0794 nM.
